Where “and” joins values, the source holds several entries; their conditions need not be identical. Identical values can stand only once. Among all 320,000 compounds or so, about 620 (0.19%) were called active. The shares of active, inactive and inconclusive entries below differ from those in the screen. Cut-off read from the data, not from the text of the source: active = activation above about 80%; inconclusive = between about 30% and that limit; inactive = weaker than that.
The compounds below were run against Transient receptor potential cation channel subfamily V member 1 (Homo sapiens) (UniProt Q8NER1) (assay: HTS Assay for Compounds that Act as Agonists of the Vanilloid Receptor 1). Settings: TRPV1-expressing cells, Fluo-8 calcium influx, agonist mode; at 8.33 µM, hits give high values.
Outline: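 TRPV1-expressing cells were cultured overnight at 35.5C and loaded with Fluo-8 calcium dye for 40 to 90 min at room temperature. After a 10 s baseline, compound was added and calcium influx was read kinetically for 3 min (ex 480/em 520 nm).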
Note: 0% is about no effect.

Protein sequences, listed by entry. Tags and fused reporters are not part of them.
UniProt Q8NER1, whole entry, looked up: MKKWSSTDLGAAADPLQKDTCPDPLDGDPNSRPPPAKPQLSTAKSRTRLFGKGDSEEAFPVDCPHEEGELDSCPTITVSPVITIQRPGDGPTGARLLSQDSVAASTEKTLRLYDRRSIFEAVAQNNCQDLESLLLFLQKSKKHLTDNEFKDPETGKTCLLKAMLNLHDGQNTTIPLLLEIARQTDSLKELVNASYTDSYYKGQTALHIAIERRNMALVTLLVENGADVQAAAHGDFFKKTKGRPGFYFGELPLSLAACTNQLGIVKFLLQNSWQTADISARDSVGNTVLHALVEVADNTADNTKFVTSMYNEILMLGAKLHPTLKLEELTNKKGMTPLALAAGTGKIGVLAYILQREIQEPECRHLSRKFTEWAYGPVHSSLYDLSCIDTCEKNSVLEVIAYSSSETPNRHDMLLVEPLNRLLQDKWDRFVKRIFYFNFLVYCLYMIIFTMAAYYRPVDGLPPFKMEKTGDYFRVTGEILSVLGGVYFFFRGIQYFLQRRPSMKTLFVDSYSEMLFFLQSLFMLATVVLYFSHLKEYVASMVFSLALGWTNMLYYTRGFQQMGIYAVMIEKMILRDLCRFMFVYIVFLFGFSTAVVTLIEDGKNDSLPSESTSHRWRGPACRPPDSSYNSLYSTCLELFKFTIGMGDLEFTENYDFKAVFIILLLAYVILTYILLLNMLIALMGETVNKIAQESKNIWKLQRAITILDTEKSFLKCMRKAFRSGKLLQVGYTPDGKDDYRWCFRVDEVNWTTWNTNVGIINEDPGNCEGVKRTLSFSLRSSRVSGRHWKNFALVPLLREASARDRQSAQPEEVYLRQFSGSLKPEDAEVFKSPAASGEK

Structure (SMILES)	activation
CNC(=O)C1CCN(C(=O)c2ccc(-c3ccccc3)cc2)CC1	inconclusive: 60.5%
Cc1ccc(C(=O)CCNc2ccc(Br)cc2)o1	inconclusive: 57.5%
CSc1nnc(NC(=O)c2ccc3c(c2)OCO3)s1	inconclusive: 35%
COc1ccc(C(=O)Oc2ccc3c(C)cc(=O)oc3c2C(C)=O)cc1	inactive: 0.978%
Cc1ccc(CN2CCN(c3ccccn3)CC2)s1	inconclusive: 48.2%
Cc1oc(C)c(C(=O)Nc2ccc(CC(=O)O)cc2)c1C(=O)Nc1ccc(CC(=O)O)cc1	inactive: 1.24%
CCc1ccc(C(=O)CCC2CCCCC2=O)cc1 (stereo not given)	inconclusive: 51.3%
Cc1ccc(S(=O)(=O)CCC(=O)Nc2ccc(Br)cc2)cc1	inconclusive: 46.7%
O=C(CCN1CCN(c2ccc(F)cc2)CC1)Nc1ccc(F)cc1	inconclusive: 37.5%
CN(CC1CCCCO1)C(=O)c1cc(COc2ccc(F)cc2Cl)on1 (stereo not given)	inconclusive: 38.5%
O=C(/C=C/Nc1cccc(C(F)(F)F)c1)c1ccco1	inconclusive: 48.3%
CSc1ccccc1OCc1cc(C(=O)N2CCCC(C)C2)no1 (stereo not given)	inconclusive: 41.2%
O=C(NNc1ccc([N+](=O)[O-])cc1)c1ccco1	inactive: 0.842%
O=C(CCSCc1ccc(Cl)cc1)NCCc1ccccc1	inconclusive: 57%
COc1ccc(CC(=O)OCC(=O)NC(=O)NC2CCCCC2)cc1	inactive: 21.2%
O=C(/C=C/c1ccc(Cl)cc1)N(Cc1ccccc1)c1ccccn1	inconclusive: 42%
NC(=O)c1ccc(Oc2ccc(Cl)c3ccccc23)c([N+](=O)[O-])c1	inconclusive: 33.7%
Cc1cccc(NC(=O)c2nc[nH]c2C(=O)N[C@@H](CC(C)C)C(=O)OC(C)(C)C)c1	inconclusive: 66.9%
COc1ccc(Br)cc1[C@H]1[C@@H]2C=CCC[C@@]2(C)C(=O)N1Cc1ccccc1	inconclusive: 71.5%
Cc1ccc(OCc2ccc(C(=O)N3CCOCC3)cc2)cc1C	inconclusive: 53.8%
CCOC(=O)c1ccc(S(=O)(=O)N2CCC(N3CCCCC3)CC2)cc1	inconclusive: 41.3%
O=C(Nc1ccsc1C(=O)NC1CCCCC1)c1ccccc1	inconclusive: 32.8%
CC(C)(C)S(=O)(=O)c1ccc2nc3c(n2c1)CCCC3	inactive: 0.0258%

Structure (SMILES)	activation
O=C(CN1CCN(c2ccccc2F)CC1)c1c[nH]c2ccc(F)cc12	inactive: 0.587%
CC(OC(=O)Cc1ccc(Cl)cc1)C(=O)NCCC1=CCCCC1 (stereo not given)	inconclusive: 34.6%
O=C(NCCc1ccccc1)c1ccc(Cl)c(S(=O)(=O)N2CCOCC2)c1	inconclusive: 51.8%
CCOCCCNC(=O)c1cn(CC)c2ccc(S(=O)(=O)N(C)C3CCCCC3)cc2c1=O	inconclusive: 43.8%
O=C(CC1OC(=O)c2ccccc21)NNC(=O)c1ccc(F)cc1 (stereo not given)	inactive: 2.05%
COc1ccc(C(CNC(=O)c2cc3ccccc3cc2OC)N2CCCC2)cc1 (stereo not given)	inconclusive: 31.9%
O=C(Nc1ccc(Cl)cc1)c1cccc(S(=O)(=O)Nc2ccccn2)c1	inconclusive: 32.4%
Cc1noc(C)c1COc1ccc(C(=O)NCCc2ccc(F)cc2)cc1	inconclusive: 32.7%
COC(=O)C(C)Sc1nc2c(c(=O)n(C)c(=O)n2C)n1Cc1cccc(C)c1 (stereo not given)	inconclusive: 62.3%
CSc1ccc(CN2CCN(Cc3ccc([N+](=O)[O-])cc3)CC2)cc1	inactive: 9.03%
CC(C)CN1CCNC(=O)C1CC(=O)NCCc1cnn(-c2ccccc2)c1 (stereo not given)	inactive: -1.64%
O=C(Nc1ccc(Cl)cc1)N1CCOCC1	inconclusive: 45.1%
Nc1ccc(C(=O)c2cccs2)cc1[N+](=O)[O-]	inactive: -0.186%
O=C(Nc1ccc(F)cc1)c1cc2ccccc2o1	active: 98.1%
NS(=O)(=O)c1ccc(Nc2c([N+](=O)[O-])cncc2[N+](=O)[O-])cc1	inactive: -1.29%
COc1ccc(/C=C2\SC(=S)N(CCC(=O)Nc3cccc(O)c3)C2=O)cc1	inconclusive: 35.5%
COc1ccc(OC)c(C(C)NC(=O)Nc2cccc(C(C)=O)c2)c1 (stereo not given)	inconclusive: 48.2%
Nc1nc2ccc(C(=O)Nc3ccccc3)cc2s1	inconclusive: 31.2%
CCc1ccc(OCC(=O)Nc2ccc3oc(=O)ccc3c2)cc1	inconclusive: 56.3%
COc1cccc(NC(=O)N2CCCC2C(=O)NC23CC4CC(CC(C4)C2)C3)c1 (stereo not given)	inconclusive: 36.7%
Cc1ccc(-c2cc(C(=O)NCc3cn(C)nc3C)c3cc(Br)ccc3n2)cc1	inconclusive: 60.4%
O=C(CSc1ccccn1)N1CCCC(Nc2ccc(F)c(F)c2)C1 (stereo not given)	inconclusive: 66.2%
Cc1cc(NC(=O)CC(C)(C)C)nc2c1c(=O)oc1ccccc12	inconclusive: 52.9%

Structure (SMILES)	activation
CCOC(=O)c1cccc(C2=CC(=O)C[C@H](c3ccc(OC)c(OC)c3)C2)c1	inactive: 22.1%
COc1ccc(-c2cn(-c3ccc(Br)cc3)c3[n+]2CCS3)cc1	inactive: 0.542%
O=C(COc1ccc(Cl)cc1)Nc1ccccc1CO	inconclusive: 46.3%
O=C(Nc1cccc2ccccc12)N1CCN(Cc2ccc3c(c2)OCO3)CC1	inconclusive: 52.7%
Cc1c(C(=O)N2CCN(c3ccc([N+](=O)[O-])cc3)CC2)oc2ccccc12	inactive: 1.44%
N#CC(c1ccc(Cl)nn1)c1c(F)cccc1Cl (stereo not given)	inconclusive: 38.2%
O=C(NCC(c1cccnc1)N1CCN(c2ccccc2F)CC1)OCc1ccccc1 (stereo not given)	inconclusive: 37.3%
CC(C(=O)Nc1sc2c(c1C#N)CCCCC2)N1C(=O)c2ccccc2C1=O (stereo not given)	inactive: 0.994%
O=C(CNS(=O)(=O)c1cccc(Br)c1)NCCCc1ccccc1	inconclusive: 41.5%
O=C(Nc1ccccc1F)Nc1ccccc1F	inconclusive: 62.9%
CC(C)(C)c1ccc(C2(C)NC(=O)N(CC(=O)Nc3ccc4c(c3)OCO4)C2=O)cc1 (stereo not given)	inconclusive: 66%
COC1=CC(=Cc2c(N)n3nc(CC(=O)N4CCCCC4)sc3nc2=O)C=C(OC)C1=O	inconclusive: 32.5%
CC(C)(C)NS(=O)(=O)c1ccc(NS(C)(=O)=O)cc1	inactive: -6.21%
CC(CN)(NS(=O)(=O)c1ccccc1)c1ccccc1 (stereo not given)	inactive: 4.24%
CCc1ccc(/C=C/c2c([N+](=O)[O-])c(=O)n(C)c(=O)n2C)cc1	inconclusive: 68.7%
CC1=NN(c2ccc(C)c(C)c2)C(=O)/C1=C\C=C\c1ccc([N+](=O)[O-])o1	inactive: 1.27%
CCOc1ccc(C)cc1S(=O)(=O)n1cnc2ccccc21	inconclusive: 70.7%
O=C(CNCc1cccs1)Nc1ccc(N2CCCCCC2)cc1	inconclusive: 78.6%
Cc1nnc(SCC(=O)Nc2cccc(S(=O)(=O)N(C)c3ccccc3)c2)s1	inactive: 12.3%
CN(Cc1ccco1)c1ncnc2ccc(-c3ccccc3Cl)cc12	inconclusive: 48.6%
O=C(NCc1ccccc1)c1ccc2nnsc2c1	inconclusive: 45%
Cc1ccc(CS(=O)Cc2ccc(C(=O)NCc3ccccc3Cl)o2)cc1 (stereo not given)	inactive: 0.75%
O=C(N/N=C/c1cccc(Br)c1)c1ccc(Br)cc1	inconclusive: 43.8%

Structure (SMILES)	activation
O=C(Nc1ccc(-n2cccn2)cc1)C1CCCCN1Cc1cccc2cccnc12 (stereo not given)	inconclusive: 50.1%
CN(C)c1ccc(/C=C2\C(=N)N3C(=NC2=O)Sc2cc(S(C)(=O)=O)ccc23)cc1	inconclusive: 30.1%
CCN1C(=NCCN2CCOCC2)N[C@@H](CCc2ccccc2)C(C(=O)OC)=C1C	inactive: 1.21% and inactive: 2.71%
COc1ccc(CCN(C)C2CCCN(S(=O)(=O)c3ccccc3F)C2)cc1OC (stereo not given)	inactive: 0.358%
O=C(CSc1nc(-c2ccccc2)ns1)N1CCOCC1	inconclusive: 36.3%
Cc1[nH]n(-c2ccccc2)c(=O)c1/C=N/NC(=O)c1ccc(O)cc1O	inconclusive: 67.1%
Cc1ccc(NC(=O)c2ccc(-n3cncn3)c([N+](=O)[O-])c2)cc1F	inconclusive: 40.9%
COC(=O)c1ccc(NC2c3ncccc3C(=O)N2Cc2cccs2)cc1 (stereo not given)	inconclusive: 43.1%
O=C(CN1CCN(c2ccc(F)cc2)CC1)NCc1ccc(F)cc1	inconclusive: 43.3%
COc1ccc(NC(=O)CN2CCN(c3nc(-c4cccc(OC)c4)cs3)CC2)cc1	inconclusive: 55.2%
COc1cccc(CNC(=O)CCn2ccc3cc(S(=O)(=O)N4CCC(C)CC4)ccc32)c1	inconclusive: 73.2%
S=C(NCCc1cccc(Cl)c1)NC1CCCCC1	inconclusive: 50.5%
N#Cc1c(-c2ccc(Cl)cc2)nc2n(c1=O)CCCS2	inactive: 9.57%
CCOCc1c(C(=O)Nc2ccc(OC)nc2)oc2ccccc12	active: 90.4%
CCn1c(SCC(=O)Nc2ccc3c(c2)OCCO3)nnc1-c1cccs1	inactive: -0.869%
O=C(COC(=O)C1(c2ccc(F)cc2)CCCC1)NC1CC1	inconclusive: 36.5%
CCOC(=O)Cc1csc(NC(=O)COc2ccc(N(C)S(=O)(=O)c3ccc(C)cc3)cc2)n1	inactive: 2.71%
CNC(=O)COC(=O)/C=C/c1cn(-c2ccccc2)nc1-c1ccc2c(c1)OCCO2	inconclusive: 54%
O=C(Nc1ccc2ccccc2n1)C1CCCCC1	inconclusive: 48.2%
COc1cccc(Nc2nnc(SCC3CCCCO3)s2)c1 (stereo not given)	inconclusive: 35.6%
CCc1nc(Nc2ccccc2OC)c2oc3ccccc3c2n1	inconclusive: 60.6%
